{
  "source": "PubChem BioAssay AID1508600",
  "about": "(Functional Genomics Laboratory (NCATS/FGL), 2020)",
  "note": "Among all 53,000 sequences or so, about 3,700 (7%) were called active.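 The calls were made as follows: active = gene knockdowns whose robust z-score for IL-1 alpha signal is at least 2 or at most -2, so actives lie on both sides; inactive = the rest.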 The list shows a part of the results.",
  "data": [
    {"assay": "Components of the Cytosolic LPS Sensing Pathway: Gene Identification via Genome-wide siRNA Screen;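 also: robust z of the log signal after scaling to non-targeting control siRNA wells of the plate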", "settings": "RAW264.7 macrophages, IL-1a HTRF, actives lie on both sides, screened at 100 nM (by protocol), cells primed 5 h with Pam3CSK4 first", "method_in_brief": "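IL-1a HTRF of supernatants after 24 hour LipidA transfection of Pam3CSK4-primed (5 hours) RAW264.7 cells, 48h post-siRNA transfection (100 nM). Scores: percent of plate negative-control median, then log-based robust z-score.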", "values": [
      {"sequence": "GCAGAUGCUUCGGUGAAAATT against Defb15", "z-score": "inactive: 0.998"},
      {"sequence": "GCGGAAAGAAUCUUGGGAATT against Bcas1", "z-score": "inactive: 1.07"},
      {"sequence": "CCUGAUAUUCAAUCUGCACTT against Nelfb", "z-score": "inactive: -0.197"},
      {"sequence": "CCCUCAUACAGAAUUAGUGTT against Zcchc14", "z-score": "inactive: 0.179"},
      {"sequence": "GCGAAUCACGCUGAAAGUCTT against Cd274", "z-score": "inactive: -1.06"},
      {"sequence": "GGUUGUGGAACAAAGAGAATT against Gucy1b1", "z-score": "inactive: -0.446"},
      {"sequence": "GGAAAAGGUUUAUUUUGCUTT against Mtmr6", "z-score": "inactive: 0.273"},
      {"sequence": "GGGCCCUGUUUCAAAACUUTT against Tmem161b", "z-score": "inactive: -0.558"},
      {"sequence": "CGUGUCUGUUCUCGUUCUGTT against Ypel3", "z-score": "inactive: -0.233"},
      {"sequence": "GGUUUCCAGUUAUCUUAAUTT against Glipr1l2", "z-score": "inactive: 1.46"},
      {"sequence": "GGAAAAGACGGAGAGGCAUTT against Hey1", "z-score": "inactive: -0.399"},
      {"sequence": "GGCAAUGACUAGAGUAAGATT against Kdm5a", "z-score": "inactive: -1.4"},
      {"sequence": "GGUCAUCAAGCAGUUUCGCTT against Coq7", "z-score": "inactive: -1.36"},
      {"sequence": "GGAGAUCUGCUCUAAUUAUTT against Eif1ax", "z-score": "active: 2.21"},
      {"sequence": "GGAAUCUUUAUCCACAUUCTT against Chst15", "z-score": "inactive: 0.943"},
      {"sequence": "CCAUCAUGCCCUGUUUGCATT against Cdc42ep3", "z-score": "inactive: 0.393"},
      {"sequence": "GGUGGUGAUACGUACAGAATT against A2m", "z-score": "inactive: 1.78"},
      {"sequence": "CCAUAUGGCUUAUCUUAUUTT against Adam5", "z-score": "inactive: 0.138"},
      {"sequence": "GGAUGCCUAUCACAAGCAGTT against Pacsin1", "z-score": "inactive: -0.478"},
      {"sequence": "GGCUCACGCUCGUUACCUATT against Nwd1", "z-score": "inactive: -1.86"},
      {"sequence": "GCUCAUCAAGCUGUACCUATT against Eif2b1", "z-score": "inactive: 1.16"},
      {"sequence": "GCCACACGUGUGCAAAGAUTT against Zfp524", "z-score": "inactive: 1.51"},
      {"sequence": "CCCUGGUAUUUCUGUUAUATT against Slc35f6", "z-score": "inactive: -1.5"},
      {"sequence": "CCUGCCAUAGUUAGUUUUUTT against Khdc1a", "z-score": "active: 7.91"},
      {"sequence": "GCUCUAAGUUUCCUCAUGGTT against Pkig", "z-score": "inactive: -0.0305"},
      {"sequence": "GGCAUCUUCGUCUUCAUGCTT against Rnf122", "z-score": "inactive: 0.548"},
      {"sequence": "GGUCCUAUUUCGGAGCUUUTT against Tnfsf14", "z-score": "inactive: 0.365"},
      {"sequence": "GCCUUGCAUGACAGUUGUCTT against 2210016L21Rik", "z-score": "inactive: -1.1"},
      {"sequence": "GGUAUGAUGCACUUUCUGATT against Zhx1", "z-score": "inactive: -1.12"},
      {"sequence": "GGAAAAGUUCAGAGCUUAUTT against Trmt1l", "z-score": "inactive: -1.99"},
      {"sequence": "GCCAUAGGAGUGAUUGGAUTT against E130018O15Rik", "z-score": "inactive: -1.66"},
      {"sequence": "CGUGGUGAUUAUGCUUCUATT against Rab37", "z-score": "inactive: -0.00686"},
      {"sequence": "GCGUGGAGAACCGUUAAUCTT against Shroom3", "z-score": "inactive: 0.845"},
      {"sequence": "GGUGGACUCUGACAUAACATT against Iigp1", "z-score": "inactive: 1.55"},
      {"sequence": "CCAACAAUCCGUAUCGACCTT against Tmem202", "z-score": "inactive: 0.384"},
      {"sequence": "GGAGAGUAUCUGAAGUUUCTT against Jak2", "z-score": "inactive: 1.8"},
      {"sequence": "GGAGGUAGAGGAGUUGGAGTT against Zyx", "z-score": "inactive: 0.652"},
      {"sequence": "GCAAGUGACGGUUUAUCUGTT against Las1l", "z-score": "inactive: -1.68"},
      {"sequence": "GCAUAUUGGAACUACUGGGTT against Olfr986", "z-score": "inactive: 0.245"},
      {"sequence": "GCCACAGGAUGCUAGCAAATT against Bex2", "z-score": "inactive: 0.282"},
      {"sequence": "GGCUCACAGUUACCAUCUCTT against Lipe", "z-score": "inactive: -1.2"},
      {"sequence": "CCUCCACUUACUUUGGGUGTT against Cic", "z-score": "inactive: 0.395"},
      {"sequence": "GCCACAAGAUACCAUCAGATT against Bex1", "z-score": "inactive: -1.66"},
      {"sequence": "GGUACACUAUACUUACAUATT against Clec2i", "z-score": "inactive: -0.654"},
      {"sequence": "CGGAUGCACUUCUCCAAAATT against Tram1", "z-score": "inactive: 0.234"},
      {"sequence": "GGCAAAAGCGAAGAAUUUATT against E2f5", "z-score": "active: 2.69"},
      {"sequence": "GGGAACGUACAUUUCUCAATT against Il18r1", "z-score": "inactive: 0.27"},
      {"sequence": "CCUGAAAGAUCCAGAAGUATT against Dppa5a", "z-score": "inactive: -1.62"},
      {"sequence": "CCUUAGGAAACGAUCUUCATT against Ints7", "z-score": "inactive: 0.658"},
      {"sequence": "GCUAAAGCCAAAAACUUACTT against AB124611", "z-score": "inactive: -0.613"},
      {"sequence": "CGCAUUCCGAUCUACGAGATT against Cartpt", "z-score": "inactive: 0.252"},
      {"sequence": "GGAAAGCAAAUCAAUGCAATT against Gldn", "z-score": "inactive: 0.841"},
      {"sequence": "CGAUCCAUGUUGUAAGCGCTT against Adam39", "z-score": "inactive: 0.347"},
      {"sequence": "CCCAAAUCUGGUUCUCAAGTT against A630001O12Rik", "z-score": "inactive: 0.958"},
      {"sequence": "CGUUCAUGUUGUAAGUAUCTT against Olfr1196", "z-score": "inactive: 0.461"},
      {"sequence": "GGGACCAGAUAGAAAUUAUTT against Arhgef25", "z-score": "inactive: 0.414"},
      {"sequence": "GGGCAAGAACAACUCACUUTT against 4933404G15Rik", "z-score": "active: -2.93"},
      {"sequence": "GGCACCGCUAUUCAGAAUUTT against Fgf23", "z-score": "inactive: 0.755"},
      {"sequence": "GGAACUCCUUAAUUGAACATT against Gfm2", "z-score": "inactive: 0.154"},
      {"sequence": "GCCCUCCAACCUCGAUAACTT against Shisa7", "z-score": "active: 2.9"},
      {"sequence": "GGAAGACACAAGAAACAUCTT against Slc15a5", "z-score": "inactive: -1.49"},
      {"sequence": "GGGUCAGUCCUGGUUUUAUTT against Sh3bp5l", "z-score": "inactive: 1.27"},
      {"sequence": "GCCGCUUUAAGAUUCCCACTT against Pde1b", "z-score": "inactive: -0.416"},
      {"sequence": "GGAACUCUUUCUUCCAUGUTT against Olfr1495", "z-score": "inactive: 0.505"},
      {"sequence": "CCCGUCCUGCUAAAUGGUGTT against Usp42", "z-score": "inactive: -1.26"},
      {"sequence": "GGAUGAUGGUGUCUACUCUTT against Fibcd1", "z-score": "inactive: -1.26"},
      {"sequence": "GCUUUGGUGCACUUGCUUUTT against Akr1c13", "z-score": "active: 2.2"},
      {"sequence": "CCCUCCUCUGUUGGAUCUUTT against Olfr912", "z-score": "inactive: 0.365"}
    ]}
  ]
}
